These are yes or no findings as the source states them, for the method shown. In cells and extracts the contact can be indirect. Some entries that bind do so weakly or less than the wild type.
Molecular target: full-length G9a (UniProt Q9Z148)
Assay: pull-down; full-length proteins produced in insect cells; complex retention after sequential affinity purification

Sequences of proteins named here, by UniProt entry; tags and fusion partners are left off.
UniProt Q9Z148: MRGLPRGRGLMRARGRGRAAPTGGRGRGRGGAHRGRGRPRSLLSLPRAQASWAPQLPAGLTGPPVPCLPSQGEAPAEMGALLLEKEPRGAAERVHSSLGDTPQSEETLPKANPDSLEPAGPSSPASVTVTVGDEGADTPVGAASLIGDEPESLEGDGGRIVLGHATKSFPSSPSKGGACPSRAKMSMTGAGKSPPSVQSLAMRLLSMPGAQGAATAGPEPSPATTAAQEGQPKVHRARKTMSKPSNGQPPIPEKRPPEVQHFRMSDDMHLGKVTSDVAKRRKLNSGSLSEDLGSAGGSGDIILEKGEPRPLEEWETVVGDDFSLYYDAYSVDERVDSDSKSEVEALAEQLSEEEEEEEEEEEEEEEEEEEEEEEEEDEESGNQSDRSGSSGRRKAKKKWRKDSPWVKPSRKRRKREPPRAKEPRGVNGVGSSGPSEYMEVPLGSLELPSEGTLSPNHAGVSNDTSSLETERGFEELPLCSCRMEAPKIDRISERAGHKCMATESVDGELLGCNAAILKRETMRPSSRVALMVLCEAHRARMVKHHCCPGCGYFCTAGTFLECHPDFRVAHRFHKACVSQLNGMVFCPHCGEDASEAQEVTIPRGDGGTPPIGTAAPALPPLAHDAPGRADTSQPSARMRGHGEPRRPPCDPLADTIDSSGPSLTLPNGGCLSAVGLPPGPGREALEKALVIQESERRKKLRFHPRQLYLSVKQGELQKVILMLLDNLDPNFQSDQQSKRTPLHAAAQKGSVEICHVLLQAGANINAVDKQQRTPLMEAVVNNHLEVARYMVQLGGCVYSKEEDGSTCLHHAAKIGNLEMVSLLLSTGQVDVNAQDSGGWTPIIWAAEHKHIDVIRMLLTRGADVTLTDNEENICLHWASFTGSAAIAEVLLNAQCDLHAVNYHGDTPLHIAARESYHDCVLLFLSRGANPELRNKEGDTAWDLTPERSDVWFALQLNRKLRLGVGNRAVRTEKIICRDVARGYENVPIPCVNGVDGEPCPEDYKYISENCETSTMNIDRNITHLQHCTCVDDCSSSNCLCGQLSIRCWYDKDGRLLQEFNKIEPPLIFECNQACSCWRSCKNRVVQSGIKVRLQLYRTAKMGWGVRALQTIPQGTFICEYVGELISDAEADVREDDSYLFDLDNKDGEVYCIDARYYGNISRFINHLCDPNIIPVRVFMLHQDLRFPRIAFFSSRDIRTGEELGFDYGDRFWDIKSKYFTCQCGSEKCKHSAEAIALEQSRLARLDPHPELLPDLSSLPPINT

binding: binds
Substance: full-length G9a (from UniProt Q9Z148 1-1263) (enzyme)
